Results: patent US7629318B2 (priority 2002, dated 2009)
For some assays here: HELM strings list residues between dots; [ac] is acetyl, [am] amide, other brackets name non-standard units.

Legend:
[1] = general procedure: Fmoc solid-phase peptide synthesis; HβPhPro-2-chlorotrityl resin; HOBt/DIC; TBTU/DIPEA; conditions: whole synthesis, scale 1.3 mmol, TFA
[2] = general procedure: Fmoc solid-phase peptide synthesis; FmocN(Bn)CH2CH2OCH2CH2O-2-chlorotrityl resin; HOBt/DIC; TBTU/DIPEA; conditions: whole synthesis, scale 2.2 mmol, TFA

| Substance | crude mass [1] | crude mass [2] |
| --- | --- | --- |
| Ac-Cha-Gpg(Pmc)-Tic-Nle-βPhPro-OH | 1.188 g |  |
| PEPTIDE1{[ac].[Cha].R.[Tic].[Nle].[ccap]}$$$$V2.0 |  | 1.38 g |
